PubChem BioAssay AID743255 (National Center for Advancing Translational Sciences (NCATS), 2014)
Among all 390,000 compounds or so, about 910 (0.23%) were called active. This list was built around the results that the source calls inconclusive (neither active nor inactive); the mix of calls is not that of the screen. The call rests on the fitted dose curve; in most records, active means well fitted inhibition curve with a large enough effect; inconclusive means small, poorly fitted or top-dose-only effect; inactive means no such curve, though single readings can be large or run the other way. Potencies of inconclusive entries are doubtful fits and often do not repeat.

By UniProt entry, the sequences of proteins in these tests, tags left out. Where a name states a change or a piece, a line headed by the entry shows the natural chain unless it says otherwise.
UniProt O94782: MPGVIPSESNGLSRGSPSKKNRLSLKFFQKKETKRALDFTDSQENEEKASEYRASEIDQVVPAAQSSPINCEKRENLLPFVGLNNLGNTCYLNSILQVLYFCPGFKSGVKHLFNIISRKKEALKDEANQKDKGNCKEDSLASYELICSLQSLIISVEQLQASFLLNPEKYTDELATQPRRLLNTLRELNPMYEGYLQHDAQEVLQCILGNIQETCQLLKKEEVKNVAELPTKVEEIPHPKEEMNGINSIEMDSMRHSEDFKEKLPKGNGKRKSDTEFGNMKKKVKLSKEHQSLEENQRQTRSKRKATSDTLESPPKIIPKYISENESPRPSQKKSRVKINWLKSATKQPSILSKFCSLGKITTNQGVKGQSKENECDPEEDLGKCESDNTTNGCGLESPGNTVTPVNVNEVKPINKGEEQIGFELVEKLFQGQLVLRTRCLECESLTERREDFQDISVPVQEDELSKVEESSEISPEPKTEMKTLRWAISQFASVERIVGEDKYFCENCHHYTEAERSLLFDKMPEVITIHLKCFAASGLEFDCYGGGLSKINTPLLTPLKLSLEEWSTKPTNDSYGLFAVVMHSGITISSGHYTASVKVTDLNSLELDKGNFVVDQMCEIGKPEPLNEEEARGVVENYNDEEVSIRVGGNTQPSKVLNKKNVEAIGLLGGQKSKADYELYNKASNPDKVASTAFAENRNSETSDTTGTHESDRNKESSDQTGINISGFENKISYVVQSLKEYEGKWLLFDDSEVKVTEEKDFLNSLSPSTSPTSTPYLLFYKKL

These compounds were tested against Ubiquitin carboxyl-terminal hydrolase 1 (Homo sapiens) (UniProt O94782) (assay: Inhibitors of USP1/UAF1: Primary Screen). Details: recombinant USP1/UAF1, Ub-Rhodamine cleavage fluorescence; activity change, negative = inhibition: at 57.1 µM (top of the series).
In short: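 1 nM enzyme complex + cpd, 15 min RT; start with Ub-Rho 150nM final; kinetic fluorescence ex 480/em 540, 6 reads q60 s. Buffer 50mM HEPES pH 7.8, 0.5mM EDTA, 0.1 mg/ml BSA, 1mM TCEP, 0.01% Tween-20.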
Further: nearly all actives have a fitted effect of over 60% in size.
On the % scale 0 is the no-effect control and ±100 the full control effect; potency means the concentration at half of the fitted maximal effect.

Potency, inconclusive:
CCOC(=O)CN1CCC(C2(c3cc4ccccc4[nH]3)OCCO2)CC1 50.1 µM [inhibitor, partial curve]
O=C(CN(CC1CCCO1)C(=O)CNS(=O)(=O)c1ccc(F)cc1)NCCc1ccccc1 (stereo unspecified) 56.2 µM [inhibitor, partial curve, poor fit]
Cc1nc(Cc2nnc(SC(C)C(=O)Nc3ccccc3)o2)cs1 (stereo unspecified) 0.224 µM [inhibitor, full curve, poor fit]
Cc1cccc(/N=C/c2c(O)cc(C)oc2=O)n1 31.6 µM [inhibitor, single point]
CN(Cc1cccc2cnccc12)C(=O)CCc1nnc(CCc2ccccc2)o1 44.7 µM [inhibitor, partial curve, poor fit]
O=[N+]([O-])c1c(C(Cl)Cl)nn(-c2ccccc2)c1N1CCOCC1 44.7 µM [inhibitor, partial curve]
CN1CCc2nc(SCC(=O)Nc3cccc(F)c3)c(C#N)c(-c3cccs3)c2C1 31.6 µM [inhibitor, single point]
O=C1OC[C@H]2CCCN2C(=O)[C@@H](CC(=O)N(CCO)Cc2ccccc2)C/C=C\CC[C@H]1Cc1ccc(F)cc1 50.1 µM [inhibitor, partial curve, poor fit]
Cc1oc2ncn(CC(C)C)c(=O)c2c1C(=O)N1CCN(c2ccccc2F)CC1 44.7 µM [inhibitor, partial curve, poor fit]
COc1ccc([N+](=O)[O-])cc1N(CC(=O)NC1CCCCC1)S(C)(=O)=O 7.94 µM [inhibitor, partial curve, poor fit]
CC(C)c1ccc(NC(=O)c2cccnc2)cc1 12.6 µM [inhibitor, partial curve]
Cc1ccccc1N(C(=O)c1snc(C(N)=O)c1N)C(C(=O)NCC1CCCO1)c1ccc(N(C)C)cc1 (stereo unspecified) 35.5 µM [inhibitor, partial curve]
CN1c2cccc3cccc(c23)N(C)C1c1cccs1 35.5 µM [inhibitor, partial curve]
c1ccc2[nH]c3cc4ncnc4cc3nc2c1 31.6 µM [inhibitor, partial curve, poor fit]
O=C1C=C(c2ccc(O)cc2)C[C@@H](c2ccc(Cl)cc2)C1 31.6 µM [inhibitor, partial curve]
O=C(CSc1nc2cc(Cl)ccc2s1)N1CCCc2ccccc21 0.316 µM [inhibitor, full curve, poor fit]
C#Cc1ccc2c(c1)COc1c3ccccc3nn1-2 14.1 µM [inhibitor, partial curve]
Cc1ccc(-n2c(SCCN)nnc2-c2cccc(C)c2)cc1 39.8 µM [inhibitor, partial curve]
Cc1cc2c(cc1C)NC(CC(=O)Nc1cccc(C)c1C)C(=O)N2 (stereo unspecified) 31.6 µM [inhibitor, partial curve]
CCS(=O)(=O)c1c(S(=O)(=O)CC)c2cc(C(C)(C)C)ccn2c1C(=O)c1ccc(F)cc1 3.98 µM [inhibitor, full curve]
CCOC(=O)C1=C(O)/C(=C\c2cccc(OC)c2)N=C1C 0.562 µM [inhibitor, full curve, poor fit]
CC(=O)c1c(C)nc2ccc(Br)cc2c1-c1ccccc1 56.2 µM [inhibitor, partial curve, poor fit]
Cc1ccc2c(c1)c1c3n2CCN(CCC(=O)O)C3CCC1 (stereo unspecified) 15.8 µM [inhibitor, partial curve, poor fit]
Cc1cc(C=C2C(=O)c3ccccc3C2=O)c(C)n1-c1ccccc1 31.6 µM [inhibitor, partial curve, poor fit]
CCCn1c(SCC#N)nc2c(c1=O)C1(CCCC1)Cc1ccccc1-2 50.1 µM [inhibitor, partial curve, poor fit]
COc1cc(Cl)c(C)cc1NC(=O)Cn1cnc2sc(C)c(S(=O)(=O)N3CCCCC3)c2c1=O 35.5 µM [inhibitor, partial curve, poor fit]
COc1cccc(OC)c1C(=O)Nc1c(C(=O)N2CCN(c3ccccn3)CC2)oc2ccccc12 39.8 µM [inhibitor, partial curve]
COc1ccc(NC(=O)C/C(C)=N/NC(=O)c2ccco2)c([N+](=O)[O-])c1 2.51 µM [inhibitor, full curve]
C=CCOc1ccc(/C=C2\SC(=S)N(CCC(=O)O)C2=O)cc1 28.2 µM [inhibitor, partial curve]
Cc1c(Cl)cccc1NC(=O)CCS(=O)(=O)c1cccc2nsnc12 2.82 µM [inhibitor, partial curve]
Cc1ccc(-c2cc3nc(C)cc(N4CCN(C(=O)c5ccoc5)CC4)n3n2)cc1 0.316 µM [inhibitor, full curve]
COc1ccc(Cl)cc1NC(=O)N1CCC2(CC1)Oc1ccccc1C(=O)N2Cc1ccc(F)cc1 8.91 µM [inhibitor, partial curve]
Cc1nn(CC(=O)c2ccc(Cl)s2)c(C)c1[N+](=O)[O-] 28.2 µM [inhibitor, single point]
Cc1cc(NS(=O)(=O)c2ccc(NC(=O)COc3ccc(Cl)c(C)c3)cc2)no1 0.447 µM [inhibitor, full curve, poor fit]
CN(C)S(=O)(=O)c1ccc(Cl)c(NC(=O)COC(=O)c2ccc3c(c2)NC(=O)CS3)c1 44.7 µM [inhibitor, partial curve, poor fit]
CCCN1C(C)C(C(=O)OCC)=CN(Cc2ccc(Br)cc2)S1(=O)=O (stereo unspecified) 44.7 µM [inhibitor, partial curve, poor fit]
O=[N+]([O-])c1ccc(Cl)c(/C=N/NC(=S)Nc2ccccc2)c1 6.31 µM [inhibitor, partial curve, poor fit]
COc1ccc(NC(=O)Cn2nc(C)c3c(C)n(-c4ccccc4)nc3c2=O)cc1OC 3.55 µM [inhibitor, full curve, poor fit]
Cc1cc(C)n(S(=O)(=O)c2cccc(Cl)c2Cl)n1 3.16 µM [inhibitor, partial curve]
CC1(N2CCCCC2)C(=O)c2ccccc2C1=O 10 µM [inhibitor, partial curve, poor fit]
CCOC(=O)C1=C(N)n2c(s/c(=C\c3ccncc3)c2=O)=C(C(=O)OCC)C1c1ccncc1 (stereo unspecified) 31.6 µM [inhibitor, partial curve]
CCN(C[C@H]1N[C@@](Cc2ccccc2)(C(=O)OC)[C@H]2C(=O)N(Cc3ccccc3)C(=O)[C@@H]12)S(=O)(=O)c1ccc(C(F)(F)F)cc1 178 µM [inhibitor, partial curve, poor fit]
CCOc1cc(C(=O)N2CC(=O)Nc3ccc(F)cc3C2c2ccccc2)cc(OCC)c1OCC (stereo unspecified) 6.31 µM [inhibitor, single point]
Cc1ccc2nc(N3CCN(c4ccc(F)cc4)CC3)c3nnnn3c2c1 1.26 µM [inhibitor, partial curve]
CCN(C(=O)C1CCCN(c2nc(-c3ccc(OC)cc3)no2)C1)c1ccc(OC)cc1 (stereo unspecified) 31.6 µM [inhibitor, partial curve]
Cc1ccc(C(C)C)c(OCc2ccc(-c3nnco3)cc2)c1 25.1 µM [inhibitor, partial curve]
O=C(/C=C/c1ccccc1O)c1ccc(Cl)cc1 56.2 µM [inhibitor, partial curve]
COc1ccc(N2CC(c3nc(-c4ccccc4C)no3)CC2=O)cc1Cl (stereo unspecified) 89.1 µM [inhibitor, partial curve, poor fit]

4 structures from above, ordered by length of the SMILES, high to low.
Potency, inconclusive:
CCOC(=O)CN1CCC(C2(c3cc4ccccc4[nH]3)OCCO2)CC1 50.1 µM [inhibitor, partial curve]
CCCn1c(SCC#N)nc2c(c1=O)C1(CCCC1)Cc1ccccc1-2 50.1 µM [inhibitor, partial curve, poor fit]
CC(=O)c1c(C)nc2ccc(Br)cc2c1-c1ccccc1 56.2 µM [inhibitor, partial curve, poor fit]
CC(C)c1ccc(NC(=O)c2cccnc2)cc1 12.6 µM [inhibitor, partial curve]

Next part.

Potency, active:
Cn1c(=O)c(Nc2ccc(Cl)cc2)c2c3c(cccc31)C(=O)c1ccccc1-2 10 µM

Activity change, negative = inhibition, inactive:
N#Cc1nc(N2CCCCC2)nc(N2CCOCC2)n1 -12.5%
C=C(C)n1c(=O)n(Cc2ccccc2C)c2ccccc21 -20.3%
COc1ccc(-c2cnnc(N/N=C/c3ccc(O)c(OC)c3)n2)cc1 -1.59%
COc1ccccc1N(CC(=O)NCCSc1ccccc1)S(=O)(=O)c1ccc(C)cc1 -16%
C/C(=N\OCc1nc2ccccc2c(=O)n1/N=C/c1cc(C)cc([N+](=O)[O-])c1O)c1ccccc1 -15.2%
CCCCN(C(=O)c1cccc(S(=O)(=O)N2CC(C)OC(C)C2)c1)c1c(N)n(CC(C)C)c(=O)[nH]c1=O (stereo unspecified) -8.4%
COc1ccccc1CNC(=O)c1ccc(CS(=O)(=O)c2ccccc2OC)o1 -6.02%
CC1=C(c2ccccc2)[N+](=O)C2(CCCC2)N1[O-] -1.64%
COc1ccc(S(=O)(=O)NCC(c2ccco2)S(=O)(=O)c2cccs2)cc1OC (stereo unspecified) -23.6%
CC(=O)Nc1cccc(C(=O)/C=C/c2ccc(Br)cc2)c1 -15.2%
CC(=O)Nc1ccc(S(=O)(=O)N2CCC(C(=O)c3ccc(F)cc3)CC2)cc1 -10.9%
CC(=O)OCC1=C(C(=O)O)N2C(=O)C(NC(=O)COc3ccc(F)cc3)C2SC1 (stereo unspecified) -3.11%
